Results deposited as PubChem BioAssay AID1159578 (Peter MacCallum Cancer Centre, 2015)
The deposit covers about 18,000 reagents; shown is an unselected part. About 1,030 of them (5.7%) count as active. 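Inactive calls also include pools with fewer than 3300 nuclei, whose migration was not assessed.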 Raw values are not corrected between plates. Not all columns of the deposit are shown. Reagent sequences are not shown.

Assay: 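siRNA pools altering how lymphatic endothelial cells close a scratch wound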 (primary screen)
System: human lymphatic endothelial cells
Reagents: siRNA pool against human genes, 40 nM
Timing: 48 h after transfection
Measurement: 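High-content imaging of dye-stained cells in a scratch assay measures filled wound area and nuclei per well; duplicate means given as ratio to mock and robust z-score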
Reading the numbers: migration robust z-score: higher = faster migration into the scratch; nuclei per well: higher = more cells in the well
Call rule: 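Pools averaging fewer than 3300 nuclei are never called; remaining pools count as changed when migration robust z lies outside -2 to 2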
Calls: active = migration changed; inactive = no migration change, or too few cells

What did the screen give for RTP5 [SID255364823]?
migration robust z-score: 1.54; nuclei per well, duplicate mean: 5186; outcome: inactive

For MBD4 [SID255353927], what was measured?
migration robust z-score: -1.82; nuclei per well, duplicate mean: 5419; outcome: inactive

For SKIC8 [SID255360774], what does the deposit list?
migration robust z-score: -0.12; nuclei per well, duplicate mean: 4502; outcome: inactive

What is on record for OR13C4 [SID255363056]?
migration robust z-score: 0.6; nuclei per well, duplicate mean: 6022; outcome: inactive

With UBE2QL1 [SID255362959], how do the results read?
migration robust z-score: -0.52; nuclei per well, duplicate mean: 4793; outcome: inactive

Individual results from the list.
For “outcome”, UBE2QL1 [SID255362959] is entered as inactive
Value for MBD4 [SID255353927] under “nuclei per well, duplicate mean”: 5419

The list goes on.
For P2RY2 [SID255351389], what was measured?
migration robust z-score: -1.17; nuclei per well, duplicate mean: 5212; outcome: inactive

For NTRK3 [SID255351314], what was measured?
migration robust z-score: -0.94; nuclei per well, duplicate mean: 4714; outcome: inactive

With PRSS12 [SID255353589], how do the results read?
migration robust z-score: -0.34; nuclei per well, duplicate mean: 5268; outcome: inactive

How did the screen score JMJD1C [SID255364265]?
migration robust z-score: 1.54; nuclei per well, duplicate mean: 6235; outcome: inactive

For SEC31A [SID255355833], what was measured?
migration robust z-score: -1.57; nuclei per well, duplicate mean: 3982; outcome: inactive

With MYCT1 [SID255360687], what was measured?
migration robust z-score: 0.86; nuclei per well, duplicate mean: 4522; outcome: inactive

For HAGHL [SID255361280], how do the results read?
migration robust z-score: -0.75; nuclei per well, duplicate mean: 5402; outcome: inactive

What did the screen give for DRAXIN [SID255365349]?
migration robust z-score: 0.39; nuclei per well, duplicate mean: 5508; outcome: inactive

For RNF216 [SID255358033], what does the deposit list?
migration robust z-score: -0.72; nuclei per well, duplicate mean: 4972; outcome: inactive
